The results in this text go back to article PMC9523645.

By UniProt entry, the sequences of proteins in these tests, tags left out.
UniProt Q14186: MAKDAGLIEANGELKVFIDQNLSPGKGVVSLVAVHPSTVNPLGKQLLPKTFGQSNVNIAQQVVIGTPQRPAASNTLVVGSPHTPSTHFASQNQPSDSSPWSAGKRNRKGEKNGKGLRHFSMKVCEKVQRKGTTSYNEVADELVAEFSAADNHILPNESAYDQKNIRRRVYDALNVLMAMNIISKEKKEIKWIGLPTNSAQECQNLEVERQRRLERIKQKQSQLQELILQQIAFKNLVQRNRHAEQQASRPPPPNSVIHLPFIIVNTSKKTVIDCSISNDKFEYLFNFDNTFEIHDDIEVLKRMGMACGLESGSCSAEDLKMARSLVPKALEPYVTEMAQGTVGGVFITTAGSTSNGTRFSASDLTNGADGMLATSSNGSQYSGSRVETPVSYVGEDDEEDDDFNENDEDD
UniProt Q8IWI9: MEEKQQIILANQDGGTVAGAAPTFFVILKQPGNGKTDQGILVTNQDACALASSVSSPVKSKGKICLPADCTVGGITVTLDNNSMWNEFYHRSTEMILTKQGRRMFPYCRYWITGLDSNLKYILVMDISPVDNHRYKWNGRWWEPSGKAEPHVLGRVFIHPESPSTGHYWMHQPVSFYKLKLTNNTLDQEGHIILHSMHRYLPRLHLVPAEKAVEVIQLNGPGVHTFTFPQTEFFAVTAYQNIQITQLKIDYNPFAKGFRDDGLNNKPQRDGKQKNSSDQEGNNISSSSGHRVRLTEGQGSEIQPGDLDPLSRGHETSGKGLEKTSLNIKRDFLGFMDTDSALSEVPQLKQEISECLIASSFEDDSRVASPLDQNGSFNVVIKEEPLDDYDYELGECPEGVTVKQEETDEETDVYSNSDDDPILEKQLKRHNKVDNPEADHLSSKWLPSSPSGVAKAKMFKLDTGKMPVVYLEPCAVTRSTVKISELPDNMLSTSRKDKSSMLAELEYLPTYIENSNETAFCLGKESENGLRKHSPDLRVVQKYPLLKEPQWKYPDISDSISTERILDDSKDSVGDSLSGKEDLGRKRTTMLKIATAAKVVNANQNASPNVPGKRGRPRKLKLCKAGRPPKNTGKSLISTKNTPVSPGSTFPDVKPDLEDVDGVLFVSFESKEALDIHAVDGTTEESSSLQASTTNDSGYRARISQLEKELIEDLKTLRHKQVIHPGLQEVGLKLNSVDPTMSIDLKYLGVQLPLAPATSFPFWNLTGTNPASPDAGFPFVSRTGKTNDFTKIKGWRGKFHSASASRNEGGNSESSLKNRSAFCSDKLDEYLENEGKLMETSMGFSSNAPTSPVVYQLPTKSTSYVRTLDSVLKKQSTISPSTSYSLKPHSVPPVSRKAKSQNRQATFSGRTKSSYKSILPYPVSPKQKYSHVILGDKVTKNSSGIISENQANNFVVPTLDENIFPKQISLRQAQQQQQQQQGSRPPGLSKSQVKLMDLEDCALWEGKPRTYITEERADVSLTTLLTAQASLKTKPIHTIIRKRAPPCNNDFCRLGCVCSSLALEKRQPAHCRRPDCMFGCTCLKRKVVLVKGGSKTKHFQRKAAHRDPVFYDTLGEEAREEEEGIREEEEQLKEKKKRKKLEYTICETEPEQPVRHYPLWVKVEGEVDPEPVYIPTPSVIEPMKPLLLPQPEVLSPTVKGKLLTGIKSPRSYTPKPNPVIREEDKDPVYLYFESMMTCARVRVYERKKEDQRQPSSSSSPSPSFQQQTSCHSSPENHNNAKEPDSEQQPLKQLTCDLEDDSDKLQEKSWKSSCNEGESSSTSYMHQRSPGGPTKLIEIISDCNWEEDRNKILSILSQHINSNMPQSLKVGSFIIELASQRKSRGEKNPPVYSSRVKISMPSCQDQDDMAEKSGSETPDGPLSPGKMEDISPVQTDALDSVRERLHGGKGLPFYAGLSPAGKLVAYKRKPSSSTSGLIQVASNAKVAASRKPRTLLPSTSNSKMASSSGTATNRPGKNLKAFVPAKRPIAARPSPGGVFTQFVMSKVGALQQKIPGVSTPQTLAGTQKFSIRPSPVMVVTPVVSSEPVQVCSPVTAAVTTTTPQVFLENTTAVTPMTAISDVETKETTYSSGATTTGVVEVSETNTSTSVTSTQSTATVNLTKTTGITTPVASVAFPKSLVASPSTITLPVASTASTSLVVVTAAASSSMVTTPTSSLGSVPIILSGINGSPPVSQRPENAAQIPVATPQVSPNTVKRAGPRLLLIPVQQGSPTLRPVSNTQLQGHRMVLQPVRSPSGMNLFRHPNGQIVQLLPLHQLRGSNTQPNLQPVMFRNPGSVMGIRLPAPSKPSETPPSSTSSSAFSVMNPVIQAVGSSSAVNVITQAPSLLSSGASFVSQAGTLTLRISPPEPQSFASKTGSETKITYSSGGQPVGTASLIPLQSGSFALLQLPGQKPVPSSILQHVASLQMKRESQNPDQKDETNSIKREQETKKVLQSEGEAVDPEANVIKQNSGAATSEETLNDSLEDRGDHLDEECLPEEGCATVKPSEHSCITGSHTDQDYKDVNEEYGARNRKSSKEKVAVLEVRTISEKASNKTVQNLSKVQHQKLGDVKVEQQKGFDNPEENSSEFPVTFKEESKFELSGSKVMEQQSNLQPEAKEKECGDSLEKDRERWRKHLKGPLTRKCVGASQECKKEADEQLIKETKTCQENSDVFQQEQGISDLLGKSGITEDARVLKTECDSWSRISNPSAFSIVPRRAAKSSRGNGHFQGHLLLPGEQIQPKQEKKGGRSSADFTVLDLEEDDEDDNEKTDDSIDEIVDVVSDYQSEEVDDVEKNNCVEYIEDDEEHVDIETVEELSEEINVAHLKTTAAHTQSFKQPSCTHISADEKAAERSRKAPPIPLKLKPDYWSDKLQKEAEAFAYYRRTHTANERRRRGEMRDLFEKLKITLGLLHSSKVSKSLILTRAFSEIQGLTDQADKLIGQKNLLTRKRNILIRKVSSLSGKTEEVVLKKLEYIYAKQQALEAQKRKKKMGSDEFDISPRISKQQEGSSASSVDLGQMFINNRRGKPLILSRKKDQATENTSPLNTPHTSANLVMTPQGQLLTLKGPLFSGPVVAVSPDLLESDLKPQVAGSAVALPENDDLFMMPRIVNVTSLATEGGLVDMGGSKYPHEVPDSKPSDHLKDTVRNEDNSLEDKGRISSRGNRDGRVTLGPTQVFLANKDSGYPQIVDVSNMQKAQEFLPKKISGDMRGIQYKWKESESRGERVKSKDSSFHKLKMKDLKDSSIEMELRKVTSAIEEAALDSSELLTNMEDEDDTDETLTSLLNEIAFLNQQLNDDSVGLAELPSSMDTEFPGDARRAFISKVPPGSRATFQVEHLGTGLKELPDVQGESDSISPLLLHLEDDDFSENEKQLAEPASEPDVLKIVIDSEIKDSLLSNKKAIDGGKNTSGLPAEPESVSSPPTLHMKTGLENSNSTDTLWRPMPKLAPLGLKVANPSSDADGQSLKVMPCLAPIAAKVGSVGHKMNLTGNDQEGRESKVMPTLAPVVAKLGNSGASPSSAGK

B1: PCGF6 (Polycomb group RING finger protein 6) (protein, UniProt Q9BYE7 1-350)
chain: MEGVAVVTAGSVGAAKTEGAAALPPPPPVSPPALTPAPAAGEEGPAPLSETGAPGCSGSRPPELEPERSLGRFRGRFEDEDEELEEEEELEEEEEEEEEDMSHFSLRLEGGRQDSEDEEERLINLSELTPYILCSICKGYLIDATTITECLHTFCKSCIVRHFYYSNRCPKCNIVVHQTQPLYNIRLDRQLQDIVYKLVINLEEREKKQMHDFYKERGLEVPKPAVPQPVPSSKGRSKKVLESVFRIPPELDMSLLLEFIGANEGTGHFKPLEKKFVRVSGEATIGHVEKFLRRKMGLDPACQVDIICGDHLLEQYQTLREIRRAIGDAAMQDGLLVLHYGLVVSPLKIT

These are yes or no findings as the source states them, for the method shown. In cells and extracts the contact can be indirect. These calls come from enrichment with a bait or labelling near it, and not all partners need be listed.

The target in the assay is SARS-CoV-2 Nsp6 with C-terminal mCherry (mCh)-FLAG (SARS-CoV-2) (UniProt P0DTD1). Nature of the assay: affinity purification with mass spectrometry.
Take “TFDP1 (Transcription factor Dp-1) (from UniProt Q14186 1-410)”: the binding result is “binds”.
Under “MGA (MAX gene-associated protein) (from UniProt Q8IWI9 1-3065)” stands “binds”; under B1, “binds”.
